Laboratory results: patent publication US8940871 (University of California, dated 2015)
Results are given in words; binding and its absence hold for the method and conditions named. Some entries that bind do so weakly or less than the wild type. For part of these data: Tags and fused reporters may be left off the sequences shown.

Tests used:
[1] = molecular target: T1, PSCA on cells (PSCA-transfected B-cell line, LNCaP prostate cancer cells, SKW-PSCA+ cells) (human) (UniProt O43653); assay: immunofluorescence on PSCA-positive prostate cancer cell lines
T1 sequence (looked up): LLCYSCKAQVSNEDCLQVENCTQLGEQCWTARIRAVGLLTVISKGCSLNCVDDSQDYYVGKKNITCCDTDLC

[2] = molecular target: T1, PSCA on cells (PSCA-transfected B-cell line, LNCaP prostate cancer cells, SKW-PSCA+ cells) (human); assay: FACS on PSCA-positive cells
[3] = molecular target: T1, PSCA on cells (PSCA-transfected B-cell line, LNCaP prostate cancer cells, SKW-PSCA+ cells) (human); assay: flow cytometry on PSCA-positive cells (cell line not named on the sheet) [sheet 2]
[4] = molecular target: T1, PSCA on cells (PSCA-transfected B-cell line, LNCaP prostate cancer cells, SKW-PSCA+ cells) (human); assay: immunofluorescence microscopy on antigen-positive cells
[5] = molecular target: T1, PSCA on cells (PSCA-transfected B-cell line, LNCaP prostate cancer cells, SKW-PSCA+ cells) (human); assay: immunofluorescence microscopy and FACS on PSCA-positive cells
[6] = molecular target: T1, PSCA on cells (PSCA-transfected B-cell line, LNCaP prostate cancer cells, SKW-PSCA+ cells) (human); assay: flow cytometry on PSCA-expressing LNCaP human prostate cancer cells; minibody at 2 ug/ml, goat anti-hFc Alexa 488
[7] = molecular target: T1, PSCA on cells (PSCA-transfected B-cell line, LNCaP prostate cancer cells, SKW-PSCA+ cells) (human); assay: flow cytometry on a B-cell line stably transfected to express PSCA; minibody at 2 ug/ml, goat anti-hFc Alexa 488
[8] = molecular target: T1, PSCA on cells (PSCA-transfected B-cell line, LNCaP prostate cancer cells, SKW-PSCA+ cells) (human); assay: flow cytometry and immunofluorescence on PSCA-expressing cells
[9] = molecular target: T1, PSCA on cells (PSCA-transfected B-cell line, LNCaP prostate cancer cells, SKW-PSCA+ cells) (human); assay: immunofluorescence microscopy on non-permeabilized LNCaP cells; Alexa488 goat anti-human IgG
purified PSCA-Fc = molecular target: T2, purified PSCA-Fc (UniProt O43653 12-86); assay: competition ELISA on plates coated with PSCA-Fc; the labelled competitor is not named [sheet 2]
T2 construct: The construct is described only by a literature citation; not shown: Fc part not described
T2 sequence (looked up): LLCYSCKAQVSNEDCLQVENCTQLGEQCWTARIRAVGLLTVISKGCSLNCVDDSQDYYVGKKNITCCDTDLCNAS

[10] = molecular target: T1, PSCA on cells (PSCA-transfected B-cell line, LNCaP prostate cancer cells, SKW-PSCA+ cells) (human); assay: flow cytometry on PSCA-positive cells [sheet 2]
[11] = molecular target: T1, PSCA on cells (PSCA-transfected B-cell line, LNCaP prostate cancer cells, SKW-PSCA+ cells) (human); assay: immunofluorescence microscopy on antigen-positive cells [sheet 1]

Measured: binding

B1: parental 2B3 anti-PSCA diabody (scFv dimer, eight amino acid linker) (scFv)
scFv: DIQLTQSPSSLSASVGDRVTITCSASSSVRFIHWYQQKPGKAPKRLIYDTSKLASGVPSRFSGSGSGTDFTLTISSLQPEDFATYYCQQWSSSPFTFGQGTKVEIKGGGSGGGSEVQLVESGGGLVQPGGSLRLSCAASGFNIKDYYIHWVRQAPGKGLEWVAWIDPENGDTEFVPKFQGRATISADTSKNTAYLQMNSLRAEDTAVYYCKTGGFWGQGTLVTVSS
notes: also called parental diabody; 2B3 diabody
binds: [1] | [2] | [3]

B2: humanized anti-PSCA minibody (2B3 scFv-CH3 dimer) (other)
chain: DIQLTQSPSSLSASVGDRVTITCSASSSVRFIHWYQQKPGKAPKRLIYDTSKLASGVPSRFSGSGSGTDFTLTISSLQPEDFATYYCQQWSSSPFTFGQGTKVEIKGSTSGGGSGGGSGGGGSSEVQLVESGGGLVQPGGSLRLSCAASGFNIKDYYIHWVRQAPGKGLEWVAWIDPENGDTEFVPKFQGRATISADTSKNTAYLQMNSLRAEDTAVYYCKTGGFWGQGTLVTVSSEPKSCDKTHTCPPCGGGSSGGGSGGQPREPQVYTLPPSRDELTKNQVSLTCLVKGFYPSDIAVEWESNGQPENNYKTTPPVLDSDGSFFLYSKLTVDKSRWQQGNVFSCSVMHEALHNHYTQKSLSLSPGK
notes: Covalent dimer of about 95 kDa; also called 2B3 minibody; parental minibody
not listed: [1] | [2] | [3]
binds: all other assays above
